# In article PMC12327844:
# Columns and labels:
# [1] = target: T1, GST-tagged GtGpsB (Geobacillus thermodenitrificans NG80-2) (UniProt A4IN56); assay: pull-down; GST pulldown with GST-tagged GtGpsB as bait, with and without ATP ('+'); samples incubated at room temperature for an hour before SDS-PAGE loading (Figure S7); both purified
# T1 sequence: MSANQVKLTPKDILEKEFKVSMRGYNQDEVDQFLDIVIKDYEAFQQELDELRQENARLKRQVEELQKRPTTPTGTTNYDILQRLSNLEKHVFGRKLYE
# [2] = target: T1, GST-tagged GtGpsB (Geobacillus thermodenitrificans NG80-2); assay: pull-down; GST pulldown with 2 mM ATP; 1 nmol GST-tagged bait on glutathione agarose beads, 10 nmol prey; SEC buffer, room temperature; Coomassie-stained SDS-PAGE; both purified
# [3] = target: T1, GST-tagged GtGpsB (Geobacillus thermodenitrificans NG80-2); assay: pull-down; GST pulldown, no nucleotide (Apo); 1 nmol GST-tagged bait on glutathione agarose beads, 10 nmol prey; SEC buffer (20 mM HEPES pH 7.5, 200 mM NaCl, 20 mM KCl, 20 mM MgCl2), room temperature; Coomassie-stained SDS-PAGE; both purified
# [4] = target: T1, GST-tagged GtGpsB (Geobacillus thermodenitrificans NG80-2); assay: pull-down; GST pulldown with 2 mM ADP; 1 nmol GST-tagged bait on glutathione agarose beads, 10 nmol prey; SEC buffer, room temperature; Coomassie-stained SDS-PAGE; both purified
# [5] = target: T1, GST-tagged GtGpsB (Geobacillus thermodenitrificans NG80-2); assay: pull-down; GST pulldown, nucleotide not stated for these panels (Figure S6, Figure 3b); GST-tagged bait on glutathione agarose beads; SEC buffer, room temperature; Coomassie-stained SDS-PAGE; both purified
# [6] = target: T2, GST-GtFliY-N36 (Geobacillus thermodenitrificans NG80-2); assay: pull-down; GST pulldown with 2 mM ATP; 1 nmol GST-tagged bait on glutathione agarose beads, 10 nmol prey; SEC buffer, room temperature; Coomassie-stained SDS-PAGE; both purified
# T2 sequence: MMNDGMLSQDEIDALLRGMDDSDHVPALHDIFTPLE
# [7] = target: T2, GST-GtFliY-N36 (Geobacillus thermodenitrificans NG80-2); assay: pull-down; GST pulldown, no nucleotide (Apo); 1 nmol GST-tagged bait on glutathione agarose beads, 10 nmol prey; SEC buffer (20 mM HEPES pH 7.5, 200 mM NaCl, 20 mM KCl, 20 mM MgCl2), room temperature; Coomassie-stained SDS-PAGE; both purified
substance,measurement,setting,value
GtFlhG D60A (Geobacillus thermodenitrificans NG80-2),binding,[1],binds
GtFlhG-ΔMTS (Geobacillus thermodenitrificans NG80-2) (domain or fragment),binding,[2],binds
same,binding,[3],binds weakly
same,binding,[4],binds weakly
GtFlhG R207E (Geobacillus thermodenitrificans NG80-2),binding,[5],binds weakly
GtPBP1^1-33 (Geobacillus thermodenitrificans NG80-2) (domain or fragment),binding,[2],binds
GtFlhG (from UniProt A4IMB4),binding,[6],binds
same,binding,[2],binds
same,binding,[7],binds
same,binding,[3],binds weakly
same,binding,[4],binds weakly
GtFlhG K36A (Geobacillus thermodenitrificans NG80-2),binding,[1],no binding (tested: 10 nmol of prey protein)
GtFlhG F215S (Geobacillus thermodenitrificans NG80-2),binding,[5],binds weakly

# No constants are given. Whether binding was seen depends on the method and setting. Binding can be weak; no strength is given. Sequences can lack the tags named with a protein.
